This note sets out measurements from patent US7867545B2, “Homogenous granular solid matrix containing vegetable protein” (J.P.M.E.D. Ltd., priority 2000, dated 2011).

A short description of the data set: Bitterness / taste evaluation of aliquots and granules.

Zinc gluconate: the “taste / taste masking” value is “typically bitter, and causes a metallic sensation and very unpleasant taste in the mouth”.

For ferrous sulfate, the bitterness evaluated result (dose of 10 mg of ferrous chelate in 100 ml tomato juice) was “typically bitter and very unpleasant in the mouth”; the bitterness evaluated result (dose of 10 mg of ferrous sulfate in 100 ml tomato juice) was “typically bitter and very unpleasant in the mouth”.
